# In all, about 300,000 compounds went through this assay and about 5,400 (1.8%) were called active. Inconclusive results, whose numbers are uncertain, are shown with a selection of clear calls. Calls come from the whole dose curve; tested in HEK293 cells. Potencies beside an inconclusive call are fits to weak or partial responses and may not hold up.
# Assay: qHTS for inhibitors of binding or entry into cells for Marburg Virus
# Conditions: Marburg virus pseudotyped entry inhibition, cell reporter; activity change, negative = inhibition: at 37.8 µM (top of the series) unless noted
# % is set by controls: 0 for no effect and ±100 for the full control effect; potency is the fitted concentration of half-maximal effect.
Structure (SMILES),"activity change, negative = inhibition",Potency
COc1ccc(C2C(C#N)=C(SC)NC3=C2C(=O)CC(C)(C)C3)cc1 (stereo not given),inactive: -8.35%,
Cc1ccccc1-c1ccc(/C=C2/SC(N3CCOCC3)=NC2=O)o1,,"inconclusive: 14.1 µM [inhibitor, partial curve, poor fit]"
COc1ccccc1NC(=O)CCC(=O)Nc1cc(OC)c(NC(=O)c2cccs2)cc1OC,,"inconclusive: 17.8 µM [inhibitor, single point]"
CCCC(=O)Nc1nnc(CCN2CCCCC2)s1,,"inconclusive: 29.1 µM [activator, single point]"
COc1ccc(N2C(=O)CC(Sc3nc4ccccc4s3)C2=O)cc1 (stereo not given),,"inconclusive: 28.2 µM [inhibitor, partial curve, poor fit]"
Cc1cccc(NC(=S)NCc2ccc3c(c2)OCO3)c1,,"inconclusive: 3.55 µM [activator, single point]"
Cc1nc(-c2ccc(Cl)cc2)sc1C(=O)NNC(=O)C(C)C,inactive: 10.2% [at 46.1 µM],
C/C(=N/OC(=O)c1ccccc1)c1oc(C)nc1C,,"inconclusive: 2.82 µM [activator, full curve]"
NS(=O)(=O)c1ccc(CCNC(=O)CCCC2=NS(=O)(=O)c3ccccc3N2)cc1,inactive: 17.4%,
CCOC(=O)CNC(=O)N1CCC(CCC(=O)N(C)Cc2ccccc2)CC1,inactive: 12% [at 46.1 µM],
CN1CCN(c2ccc(Cl)cc2NC(=O)C2COc3ccccc3O2)CC1 (stereo not given),,"inconclusive: 20.6 µM [inhibitor, partial curve, poor fit]"
CCOc1ccc(C(=O)Nc2ccc(S(=O)(=O)Nc3nccc(C)n3)cc2)cc1OCC,inactive: 9.39% [at 46.1 µM],
COc1ccc(S(=O)(=O)Nc2cccnc2)c(C)c1C,inactive: 10.4% [at 46.1 µM],
CC(=O)c1ccc(NC(=O)c2cc(-c3ccc(C)s3)nc3ccccc23)cc1,,"inconclusive: 6.31 µM [activator, partial curve, poor fit]"
CCC(C)NC(=O)Cn1c(=O)n(CCCCCC(=O)NCc2ccccc2Cl)c(=O)c2sccc21 (stereo not given),inactive: -5.02% [at 46.1 µM],
CC(NC(=O)C(Cc1ccccc1)N1C(=O)C2C3CCC(C3)C2C1=O)c1ccccc1 (stereo not given),inactive: -1.16%,
CCOC(=O)c1cnc(SCc2ccc(C(C)(C)C)cc2)nc1N,inactive: -2.65%,
COc1cc(NC(=O)CCC(=O)Nc2ccc3nc(N4CCOCC4)cc(C)c3c2)cc(OC)c1OC,,"inconclusive: 31.6 µM [activator, single point]"
O=C1NC2(CCCCC2)NN1c1ccccc1,,"inconclusive: 6.31 µM [inhibitor, full curve]"
OCCN1CCN(Cc2nc(-c3cccc(Cl)c3)no2)CC1,,"inconclusive: 1.12 µM [activator, full curve, poor fit]"
COc1ccc(C(=O)C2CCCN(Cc3cccn3-c3ccc(Cl)cn3)C2)c(OC)c1 (stereo not given),,"inconclusive: 17.8 µM [inhibitor, partial curve, poor fit]"
COc1ccccc1NC(=O)COC(=O)c1ccc([N+](=O)[O-])s1,,"inconclusive: 35.5 µM [inhibitor, single point]"

Structure (SMILES),"activity change, negative = inhibition",Potency
O=C(Nc1nnc(C(F)(F)F)s1)c1ccc(Br)s1,,"inconclusive: 10 µM [inhibitor, partial curve, poor fit]"
COc1ccc(OC)c(-c2cc(C(=O)Nc3c(C)nn(Cc4ccccc4Cl)c3C)no2)c1,,inactive
COc1ccc(-c2noc(CCC(=O)NCC3CCN(Cc4cccc(C)c4)CC3)n2)cc1,,"inconclusive: 12.6 µM [inhibitor, partial curve, poor fit]"
CCc1cccc2c(C(=O)CSc3nncn3-c3ccc(OC)cc3)c[nH]c12,,"inconclusive: 35.5 µM [inhibitor, partial curve, poor fit]"
CCCCC1C2=C(CC(C)(C)CC2=O)OC2=C1C(=O)CC(C)(C)C2,,"inconclusive: 3.55 µM [activator, single point]"
CCOC(=O)C1CCN(C(=O)C(=O)c2cn(CC(=O)N3CCCCCC3)c3ccccc23)CC1,inactive: -19.5% [at 46.1 µM],
COc1ccccc1N1CCN(CC(O)COc2ccc(C)cc2C)CC1 (stereo not given),,"inconclusive: 14.1 µM [inhibitor, single point]"
O=[N+]([O-])c1ccc(N2CCOCC2)cc1NC(c1ccccc1)c1ccccc1,,"inconclusive: 35.5 µM [inhibitor, single point]"
O=C(Nc1ccc(S(=O)(=O)Nc2ccc(F)cc2)cc1)c1ccc(CN2CCOCC2)cc1,,"inconclusive: 6.31 µM [inhibitor, partial curve, poor fit]"
COc1cc(NC(=O)Nn2cnnc2)cc(OC)c1OC,,"inconclusive: 1 µM [inhibitor, partial curve, poor fit]"
CCOC(=O)c1c(C)oc2c(F)c(F)c(F)c(F)c2c1=O,,"inconclusive: 35.5 µM [inhibitor, single point]"
CCCCCCCCCCCCC/C=C/[C@@H](O)[C@@H](N)CO,,"inconclusive: 1 µM [inhibitor, full curve, poor fit]"
CCOc1ccc(NC(=O)c2ccc(CN3CCc4ccccc4C3)cc2)cc1,,"inconclusive: 2.51 µM [inhibitor, full curve, poor fit]"
CC(=O)OCC1O[C@@H](O[C@@H]2C[C@H]3C(C)(C)[C@H](OC(C)=O)CC[C@]3(C)[C@H]3CC[C@]45C[C@]4(CC[C@H]5[C@@H](C)C[C@@H](O)[C@H](O)C(C)(C)O)[C@@]32C)[C@H](O)[C@@H](O)[C@@H]1O (stereo not given in full),,"inconclusive: 3.66 µM [inhibitor, partial curve, poor fit]"
O=C(/C=C/c1cccc(F)c1)NCCCn1ccnc1,inactive: 9.64%,
CCn1nc(C)c(/C=N/NC(=O)CSc2ccccn2)c1C,,"inconclusive: 3.98 µM [activator, full curve, poor fit]"
C=COC[C@@H]1CN2[C@@H](CC[C@@H](C)[C@@H]2c2ccc(Br)cc2)C(=O)O1,,"inconclusive: 0.0841 µM [activator, full curve, poor fit]"
COc1ccc2c(c1)c(C(O)CN1CCN(Cc3ccc4c(c3)OCO4)CC1)c(C)n2C (stereo not given),,"inconclusive: 22.4 µM [inhibitor, single point]"
COc1ccccc1OCC(O)COC(N)=O (stereo not given),,"inconclusive: 3.66 µM [activator, single point]"
Cc1ccc(S(=O)(=O)NN2C(=O)c3ccccc3NC2c2ccccc2F)cc1 (stereo not given),,"inconclusive: 20 µM [inhibitor, partial curve, poor fit]"
CCOC(=O)C1=C(C)N=c2s/c(=C\c3ccncc3)c(=O)n2C1c1ccc2c(c1)OCO2 (stereo not given),,inactive
O=[N+]([O-])c1cc(Cl)c2cccnc2c1O,,"inconclusive: 25.1 µM [inhibitor, single point]"

# A portion from the list above, for reference:
Structure (SMILES),"activity change, negative = inhibition",Potency
CC(=O)OCC1O[C@@H](O[C@@H]2C[C@H]3C(C)(C)[C@H](OC(C)=O)CC[C@]3(C)[C@H]3CC[C@]45C[C@]4(CC[C@H]5[C@@H](C)C[C@@H](O)[C@H](O)C(C)(C)O)[C@@]32C)[C@H](O)[C@@H](O)[C@@H]1O (stereo not given in full),,"inconclusive: 3.66 µM [inhibitor, partial curve, poor fit]"
O=C(/C=C/c1cccc(F)c1)NCCCn1ccnc1,inactive: 9.64%,
CCn1nc(C)c(/C=N/NC(=O)CSc2ccccn2)c1C,,"inconclusive: 3.98 µM [activator, full curve, poor fit]"

# Next part:

Structure (SMILES),"activity change, negative = inhibition",Potency
Clc1cccc(/C=N\Nc2nccs2)c1,inactive: -6.54%,
Cc1cc(C)c(C)c(OCC(=O)Nc2ccc(S(=O)(=O)Nc3nc(C)cc(C)n3)cc2)c1,inactive: 17.3% [at 46.1 µM],
CCCn1cnc2c(SCCc3ccccc3)nc(N)nc21,,"inconclusive: 35.5 µM [activator, single point]"
O=C(C1CCN(S(=O)(=O)c2ccc(-n3cnnn3)cc2)CC1)N1CCCCC1,,"inconclusive: 3.16 µM [inhibitor, partial curve]"
CC1(C)NC(=O)N(C[C@@H](O)Cn2nnc3ccccc32)C1=O,inactive: -13.5% [at 46.1 µM],
N#Cc1ccccc1OCC(=O)Nc1cc(S(=O)(=O)N2CCCCC2)ccc1N1CCOCC1,,"inconclusive: 5.62 µM [inhibitor, single point]"
COc1ccc(NC(=O)CSc2nc3ccccc3nc2N2CCC(C)CC2)cc1,,"inconclusive: 35.5 µM [inhibitor, single point]"
CCNC(=S)Nc1ccc(OCc2nc3ccccc3s2)cc1,,"inconclusive: 35.5 µM [inhibitor, single point]"
COc1ccc(COC(=O)N/N=C2\C[C@@H](O)[C@@H](O)[C@@H]3[C@@H]4C(=O)N(C[C@@H]5CCCO5)C(=O)[C@@H]4CC[C@H]23)cc1,,"inconclusive: 15.8 µM [activator, partial curve]"
COc1ccc(CNC(=O)CN(c2ccc(C(C)C)cc2)S(=O)(=O)c2c(C)nn(C)c2C)cc1,inactive: -10.7% [at 46.1 µM],
OC(COc1ccc(OCC(O)CN2CCCCCC2)cc1)CN1CCCCCC1 (stereo not given),,active: 11.2 µM
CC(=O)c1ccc(OCc2ncc(C(F)(F)F)cc2Cl)cc1,inactive: 13.7%,
CCOC(=O)N1CCN(Cc2cccs2)CC1,inactive: 34.6%,
O=C1NCCCc2c1oc1ccc(O)cc21,,"inconclusive: 29.1 µM [activator, single point]"
O=C(c1ccccc1)N1CCN2C(=O)c3ccccc3C12c1ccc(Cl)cc1 (stereo not given),,"inconclusive: 35.5 µM [inhibitor, single point]"
O=C(CCCN1C(=O)c2cccc3cccc(c23)C1=O)N1CCN(c2ccc(F)cc2)CC1,,"inconclusive: 11.2 µM [inhibitor, partial curve]"
CS(=O)(=O)N(CCC(=O)O)Cc1ccccc1,,"inconclusive: 0.282 µM [activator, partial curve, poor fit]"
CCN(CC)S(=O)(=O)c1ccc(C(=O)Nc2ccc(Cc3ccncc3)cc2)cc1,,"inconclusive: 10 µM [inhibitor, partial curve, poor fit]"
COc1ccc(/C=N/Nc2nc(-c3ccc(C)cc3)c(NC(C)=O)s2)cc1,inactive: 14.6% [at 46.1 µM],
CCN=C1NN=C(c2cc(C)n(Cc3ccco3)c2C)CS1,,"inconclusive: 17.8 µM [inhibitor, partial curve, poor fit]"
COCCNc1nc2c(-c3cccc(C(F)(F)F)c3)nnn2c2ccccc12,,"inconclusive: 10 µM [activator, partial curve, poor fit]"

# Reference: PubChem BioAssay AID540276 (National Center for Advancing Translational Sciences (NCATS), 2011)
